PubChem BioAssay AID1671195 – Yale University, 2021

Aim: 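Regulators of LDL receptor activity judged by labelled LDL uptake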 (primary screen)
Cells: human Huh7 hepatoma cells
Knock-down reagent: siRNA pool against human genes, 18 nM
Time to read-out: about 2 to 2.5 days of knockdown, then 8 h LDL uptake
Treatment: DiI-labelled LDL at 30 µg/ml for 8 h, in lipoprotein-deficient serum medium
Detection: 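Fluorescent LDL signal imaged in cells, scaled to the plate median, robust z-score for each replicate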
Scale: robust z-score: higher = more LDL uptake after knockdown
Rule for the call: 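a gene counts as active if at least two replicate z-scores exceed ±2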
The deposit covers about 22,000 reagents; this is a part drawn at random. About 1,510 of all reagents (6.9%) count as active. 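Active includes knockdowns raising or lowering LDL uptake; positive z-scores mean more uptake, negative mean less.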 Entries without a mark were called inactive. The numbers tell different reagents against one gene apart.

target	pool no.	robust z-score, replicate 1	robust z-score, replicate 2	robust z-score, replicate 3
U2AF1 (U2 small nuclear RNA auxiliary factor 1)	1	-0.0244	-0.141	-0.322
XAB2 (XPA binding protein 2)	1	-0.73	-0.711	-1.12
THEM5 (thioesterase superfamily member 5)	1	-0.629	-0.346	-0.456
CNST (consortin, connexin sorting protein)	1	0.599	0.893	1.35
RPS7P3 (ribosomal protein S7 pseudogene 3)	1	1.14	0.54	0.241
PGAP1 (post-GPI attachment to proteins inositol deacylase 1)	1	1.74	1.06	0.937
GLB1L3 (galactosidase beta 1 like 3)	1	2.54 (active)	2.33	3.01
GLB1L3 (galactosidase beta 1 like 3)	2	0.0378	0.403	0.0991
CNGA3 (cyclic nucleotide gated channel subunit alpha 3)	1	-1.29	-1.66	-1.05
LOC441215 (retired record)	1	-1.17	-1.31	-1.42
CTNNA3 (catenin alpha 3)	1	-0.415	0.373	0.704
ZNF503-AS1 (ZNF503 antisense RNA 1)	1	-0.839	-0.327	-0.247
SERGEF (secretion regulating guanine nucleotide exchange factor)	1	0.91	0.01	0.0912
LGR5 (leucine rich repeat containing G protein-coupled receptor 5)	1	-1.47	-0.924	-1.05
SPAG8 (sperm associated antigen 8)	1	-0.481	-1.74	1.75
SDSL (serine dehydratase like)	1	1.06	1.56	1.32
PIGH (phosphatidylinositol glycan anchor biosynthesis class H)	1	0.306	0.81	-0.674
FIBIN (fin bud initiation factor homolog)	1	0.515	-0.401	0.198

Next part (2 carried over from the part before).
target	pool no.	robust z-score, replicate 1	robust z-score, replicate 2	robust z-score, replicate 3
PIGH (phosphatidylinositol glycan anchor biosynthesis class H)	1	0.306	0.81	-0.674
FIBIN (fin bud initiation factor homolog)	1	0.515	-0.401	0.198
COQ5 (coenzyme Q5, methyltransferase)	1	-0.613	-1.04	-0.416
LOC441099 (retired record)	1	-0.646	-0.785	-0.862
NEU2 (neuraminidase 2)	1	0.0449	-0.277	0.527
EPN1 (epsin 1)	1	1.37	0.867	0.869
RARA (retinoic acid receptor alpha)	1	1.13	-1.02	-0.0763
SEMA7A (semaphorin 7A (JohnMiltonHagen blood group))	1	-0.683	-0.606	-0.523
MRPL38 (mitochondrial ribosomal protein L38)	1	-0.726	-1.31	-1.04
RNASE2 (ribonuclease A family member 2)	1	0.185	0.211	0.935
FAM3A (FAM3 metabolism regulating signaling molecule A)	1	-1.84	-1.74	-2.11
HAUS2 (HAUS augmin like complex subunit 2)	1	-0.616	0.863	-0.231
